For 64 compounds, AC50 results are on record in PubChem BioAssay AID493014 (National Center for Advancing Translational Sciences (NCATS), 2011).

The assay can be described thus: qHTS Assay to Find Inhibitors of Chronic Active B-Cell Receptor Signaling. The conditions noted are these: ABC-DLBCL IkBa-CBG/CBR reporter, luminescence ratio (green luciferase fused to IkBa over red control in TMD8 lymphoma cells), 4 h. In outline: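 Doxycycline induced both beetle luciferases in TMD8 lymphoma cells; IKK-driven degradation limits the IkappaBalpha-fused green signal, while red luminescence normalises for cell number and nonspecific effects. Compounds tested up to 46 uM, 4 hrs.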
A general note: In qHTS, concentration-response curves come from the screen itself.

Where [1] appears, read: measured here: CBR red luminescence, cell number.
The mark [2] stands for this setting: measured here: IkBa-CBG green luminescence.

Each structure is given as a SMILES string. Some of the results follow. Shown are side measurements of this screen, not its main read-out; they come without a call. Most of these compounds were active or inconclusive in the main read-out, so they are no random draw. Words in brackets tell the shape of the fitted curve; partial curves, single points and poor fits give uncertain potencies.

What is called AC50 is the concentration at which the activity in the assay is half-maximal. On to `c1csc(-c2csc3ncnc(NCCCN4CCOCC4)c23)c1`, for which the AC50 under setting [1] was 25.9 µM [falling, single point].

For the compound `S=c1[nH]c2ccc3ccccc3c2[nH]1`, the AC50 under setting [1] was 3.55 µM [rising, partial curve, poor fit].

For the compound `COc1ccc(C2(C)NC(=O)N(CC(=O)Nc3ccc4c(c3)CCC4)C2=O)cc1OC` (configuration not stated), under setting [1], the concentration at half-maximal activity (AC50) is 25.9 µM [rising, single point].

Regarding `COc1ccc(-c2oc3ncn4nc(Cc5ccccc5)nc4c3c2-c2ccc(OC)cc2)cc1`, under setting [1], the AC50 is 0.146 µM [rising, full curve, poor fit].

Consider `O=c1[nH]c(SCc2nc3ccccc3n2Cc2ccccc2)nc2ccccc12`, for which the AC50 under setting [1] was 13 µM [rising, partial curve, poor fit].

Regarding `Cc1[nH]c2ccccc2c1-c1csc(NC(=O)CSCC(=O)O)n1`, under setting [1], the concentration at half-maximal activity (AC50) was 11.2 µM [falling, partial curve].

On to `CCCC(=O)c1ccc(N2CCN(C(=O)c3ccccc3)CC2)c(F)c1`, for which the AC50 under setting [1] was 20.6 µM [falling, single point].

Turning to `COc1ccc2oc(C(=O)N(C)Cc3ccc4c(c3)OCCO4)c(C)c2c1`, the concentration at half-maximal activity (AC50) under setting [1] is 32.6 µM [rising, partial curve, poor fit].

Consider `Cc1ccc(CCNC(=O)C23CN(Cc4ccccc4)CC2C(c2ccc([N+](=O)[O-])cc2)=NO3)cc1` (configuration not stated), for which the concentration at half-maximal activity (AC50) under setting [1] was 0.562 µM [rising, full curve, poor fit].

As for `Cc1cc2occ(CC(=O)N(C)CC(=O)Nc3c(C)cccc3C)c2cc1C`, under setting [1], the half-maximal activity concentration (AC50) was 0.461 µM [rising, full curve, poor fit].

For the compound `CCN(CC)S(=O)(=O)c1ccc(N2CCCC2)c(NC(=O)Cc2ccc(OC)cc2)c1`, under setting [1], the AC50 is 15.8 µM [rising, single point].

Consider `CCOC(=O)Cc1csc(NC(=O)NC2(C(F)(F)F)Oc3ccccc3O2)n1`, for which the AC50 under setting [1] is 16.4 µM [falling, partial curve].

Turning to `COC(=O)c1sccc1S(=O)(=O)N(CC(=O)Nc1ccccc1)c1ccccc1`, the AC50 under setting [1] was 10 µM [falling, partial curve, poor fit].

In the case of `Cc1cc(C)c(OCC(=O)Nc2ccccn2)c([N+](=O)[O-])c1`, under setting [1], the AC50 was 23.1 µM [rising, partial curve, poor fit].

In the case of `Cc1ccc(/C=C2/Sc3ccccc3N(CC(=O)NCC3CCCO3)C2=O)cc1` (configuration not stated), the half-maximal activity concentration (AC50) under setting [1] was 7.08 µM [rising, partial curve, poor fit].

On to `C[C@H](NS(=O)(=O)c1c(Cl)cccc1Cl)C(=O)NNC(=O)COc1ccccc1F`, for which the AC50 under setting [1] was 25.9 µM [falling, single point].

Turning to `COc1ccc(-n2c(Cc3cccn3C)nnc2SCC(=O)Nc2ccc(C(C)=O)cc2)cc1`, the AC50 under setting [1] was 0.0058 µM [falling, full curve, poor fit].

For the compound `Fc1ccccc1CNCCC(Cc1ccccc1)c1ccc2c(c1)OCO2` (configuration not stated), the AC50 under setting [1] was 20.6 µM [falling, partial curve].

Turning to `CCNC(=S)N/N=C1\C(=O)c2cccc3cccc1c23`, under setting [1], the half-maximal activity concentration (AC50) is 13 µM [rising, single point].

As for `COC(=O)c1cc(-c2ccc(Cl)cc2Cl)n[nH]1`, the AC50 under setting [1] is 15.8 µM [rising, partial curve, poor fit].

For `COc1cccc(C(=O)NC(=S)Nc2nnn(C)n2)c1`, the AC50 under setting [1] is 20.6 µM [falling, partial curve].

As to `Cc1nn(C(=O)c2ccoc2C)c(N)c1-c1ccccc1`, the AC50 under setting [1] was 0.366 µM [rising, full curve].

As to `CCCCN(CCCC)C(=O)C1(P(=O)(c2ccccc2)c2ccccc2)CCC1`, under setting [1], the AC50 was 17.8 µM [falling, partial curve, poor fit].

As to `CCCC(=O)Nc1ccc(N2CCN(C(=O)c3cccs3)CC2)cc1`, the concentration at half-maximal activity (AC50) under setting [1] is 20.6 µM [falling, partial curve, poor fit].

For the compound `CC(=O)N(C)C1(c2nnnn2CCOC(=O)Nc2cccc3ccccc23)CCCC1`, the AC50 under setting [1] was 0.92 µM [rising, partial curve].

Turning to `O=c1c2c(nc3cc(-c4ccccc4)[nH]n13)CCC2`, the AC50 under setting [1] was 5.01 µM [falling, full curve, poor fit].

As to `COc1ccc(-c2oc3cccnc3c2/C=C/c2ccc(OC)c(OC)c2)cc1`, the concentration at half-maximal activity (AC50) under setting [1] is 14.1 µM [falling, partial curve].

With `O=C(NCCc1ccccn1)c1ccc2nc(Cc3ccccc3F)oc2c1`, the AC50 under setting [1] was 3.55 µM [rising, partial curve, poor fit].

On to `COc1cc(C(=O)CCN2CCC(c3ccccc3)C2)cc(OC)c1OC` (configuration not stated), for which the concentration at half-maximal activity (AC50) under setting [1] was 20 µM [falling, single point] and the AC50 under setting [2] is 8.91 µM [rising, partial curve, poor fit].

In the case of `CCSc1nnc(NC(=O)/C=C/c2ccco2)s1`, the AC50 under setting [1] was 5.01 µM [falling, full curve].

With `O=C(Nc1cc(S(=O)(=O)N2CCOCC2)ccc1Cl)c1cc2ccccc2o1`, under setting [1], the AC50 was 1.46 µM [rising, partial curve, poor fit].

For the compound `COc1ccc(-c2nn(-c3ccccc3)cc2C(=O)O)cc1`, under setting [1], the AC50 was 35.5 µM [falling, single point].

With `CCOCCCNC(=O)C(c1ccc(OC)cc1)N(Cc1ccc2c(c1)OCO2)C(=O)c1cnccn1` (configuration not stated), under setting [1], the half-maximal activity concentration (AC50) was 6.31 µM [rising, single point].

For `COc1cccc(/C=N/Nc2ccc([N+](=O)[O-])cn2)c1O`, the AC50 under setting [1] was 2.24 µM [falling, full curve].

With `Cc1ccc(C(=O)NC(C)c2ccncc2)o1` (configuration not stated), under setting [1], the AC50 is 2.24 µM [rising, full curve].

On to `O=C(CN(c1ccccc1)S(=O)(=O)c1ccccc1[N+](=O)[O-])NN=C1CCCCCCC1`, for which, under setting [1], the AC50 is 35.5 µM [falling, single point].

Consider `COc1cc(/C=N/NC(=S)NCCN2CCOCC2)cc(OC)c1O`, for which the concentration at half-maximal activity (AC50) under setting [1] was 0.116 µM [rising, full curve, poor fit] and the half-maximal activity concentration (AC50) under setting [2] is 16.4 µM [falling, partial curve, poor fit].

Turning to `COc1ccc(Cl)cc1NC(=O)c1cc(S(=O)(=O)N(C)Cc2ccccc2)ccc1F`, under setting [1], the AC50 is 35.5 µM [rising, single point].

Take `Cc1cnc(C)c(N2CCN(Cc3cn(C)nc3-c3cccc(Cl)c3)CC2)n1`: under setting [1], the AC50 was 0.891 µM [rising, full curve, poor fit].

Take `COc1ccc(Cl)cc1S(=O)(=O)NCc1cccnc1`: the concentration at half-maximal activity (AC50) under setting [1] was 29.1 µM [rising, single point].

Turning to `Cc1ccc(-c2cc(C(=O)N/N=C/c3ccccc3O)n[nH]2)o1`, the AC50 under setting [1] is 0.794 µM [falling, full curve].

As to `Cn1cc(/C=N\NC(=O)c2cccs2)c2ccccc21`, under setting [1], the AC50 is 12.6 µM [falling, partial curve].

Consider `Cc1cccc(-n2cnc3cc(C(=O)N4CCc5ccccc54)ccc32)c1`, for which the AC50 under setting [1] is 13 µM [falling, partial curve].

Take `COc1ccc(C=O)cc1OS(=O)(=O)c1ccccc1[N+](=O)[O-]`: the AC50 under setting [1] is 3.66 µM [rising, single point].

As for `Cn1ccc(C(=O)N/N=C/c2c[nH]c3ccccc23)n1`, the concentration at half-maximal activity (AC50) under setting [1] was 2.82 µM [falling, full curve, poor fit].

Regarding `Cc1cc(NCc2ccccn2)ccc1Br`, under setting [1], the concentration at half-maximal activity (AC50) is 8.91 µM [rising, partial curve].

In the case of `Cc1cnc(NC(=O)C2COc3ccccc3O2)s1` (configuration not stated), the half-maximal activity concentration (AC50) under setting [1] was 7.08 µM [falling, partial curve].

Turning to `CC(=O)C1=C(S(=O)(=O)c2ccc(C)cc2)CS(=O)(=O)C1`, the AC50 under setting [1] was 22.4 µM [falling, single point].

With `c1ccc(CN2CCN(CCOCCOc3cccc4ccccc34)CC2)cc1`, the AC50 under setting [1] is 35.5 µM [falling, single point].

As for `Cc1ccc(-c2cc(-c3ccccc3)no2)c(O)c1`, the AC50 under setting [1] was 2.06 µM [falling, partial curve].

With `O=C(/C=C/Nc1ccccc1C(=O)O)c1cccs1`, the half-maximal activity concentration (AC50) under setting [1] is 29.1 µM [falling, single point].

Consider `CCSc1nncn1/N=C/c1ccc(OC)c(OC)c1`, for which the concentration at half-maximal activity (AC50) reads like this: under setting [1], 16.4 µM [rising, single point]; under setting [2], 16.4 µM [falling, partial curve, poor fit].

On to `Cc1cc(=O)n(-c2ccc(Cl)cc2)c(=O)[nH]1`, for which the concentration at half-maximal activity (AC50) under setting [1] was 12.6 µM [rising, partial curve].

Consider `O=C(c1ccoc1)N1CCC2(CC1)Oc1ccc(Cl)cc1C(=O)C21CC(c2cccnc2)=NO1` (configuration not stated), for which the AC50 under setting [1] is 0.794 µM [rising, partial curve, poor fit].

On to `CCCNS(=O)(=O)c1ccc(OCC(=O)Nc2ccc3c(c2)OCCO3)cc1`, for which the AC50 under setting [1] is 29.1 µM [falling, single point].

For the compound `O=c1nc(N2CCOCC2)ccn1-c1nc(-c2ccccc2)oc1-c1ccccc1`, the AC50 under setting [1] is 10 µM [rising, partial curve, poor fit].

Consider `O=C(Nc1nnc(-c2ccncc2)o1)c1ccc(Br)s1`, for which the AC50 under setting [1] is 2.82 µM [falling, full curve].

Turning to `O=C(Nc1ccc(N2CCOCC2)cc1)c1ccc2c(c1)OCO2`, the half-maximal activity concentration (AC50) under setting [1] is 3.55 µM [falling, partial curve, poor fit].

For `CC(C)c1ccc(N2CCN(C(=O)c3ccccc3NC(=O)/C=C(\C(=O)O)c3ccccc3)CC2)cc1`, the AC50 under setting [1] is 5.8 µM [falling, partial curve, poor fit].

For the compound `Cc1cccc2nc(-c3ccccc3)nc(N[C@@H](CO)c3ccccc3)c12`, the AC50 under setting [1] is 20.6 µM [falling, partial curve].

With `CCc1nc2cccnc2n1-c1ccc(CC(=O)NCCOC)cc1`, under setting [1], the AC50 was 7.08 µM [falling, partial curve].

As for `Cc1ccc(OCc2csc(N)n2)cc1`, under setting [1], the AC50 was 28.2 µM [falling, single point].

With `O=C(CSc1nc(-c2ccccc2)nc2ccccc12)Nc1nccs1`, the half-maximal activity concentration (AC50) under setting [1] is 0.316 µM [falling, full curve, poor fit].

On to `COc1ccc(C(=O)Sc2nncc3ccccc23)cc1`, for which the AC50 under setting [1] is 11.2 µM [falling, single point].
